Measured values from paper doi:10.1101/2023.07.24.550340.
Positions count from the first letter of the chain named. Results are given in words; binding and its absence hold for the method and conditions named. In cells and extracts the contact can be indirect. Some entries that bind do so weakly or less than the wild type. Sequences can lack the tags named with a protein.

B1: Myc-tagged NR2F2 (Myc-NR2F2) (protein, UniProt P24468 1-414)
chain: MAMVVSTWRDPQDEVPGSQGSQASQAPPVPGPPPGAPHTPQTPGQGGPASTPAQTAAGGQGGPGGPGSDKQQQQQHIECVVCGDKSSGKHYGQFTCEGCKSFFKRSVRRNLSYTCRANRNCPIDQHHRNQCQYCRLKKCLKVGMRREAVQRGRMPPTQPTHGQFALTNGDPLNCHSYLSGYISLLLRAEPYPTSRFGSQCMQPNNIMGIENICELAARMLFSAVEWARNIPFFPDLQITDQVALLRLTWSELFVLNAAQCSMPLHVAPLLAAAGLHASPMSADRVVAFMDHIRIFQEQVEKLKALHVDSAEYSCLKAIVLFTSDACGLSDVAHVESLQEKSQCALEEYVRSQYPNQPTRFGKLLLRLPSLRTVSSSVIEQLFFVRLVGKTPIETLIRDMLLSGSSFNWPYMAIQ
B2: Myc-tagged WT NR2F1 (Myc-NR2F1) (protein, UniProt P10589 1-423)
chain: MAMVVSSWRDPQDDVAGGNPGGPNPAAQAARGGGGGAGEQQQQAGSGAPHTPQTPGQPGAPATPGTAGDKGQGPPGSGQSQQHIECVVCGDKSSGKHYGQFTCEGCKSFFKRSVRRNLTYTCRANRNCPIDQHHRNQCQYCRLKKCLKVGMRREAVQRGRMPPTQPNPGQYALTNGDPLNGHCYLSGYISLLLRAEPYPTSRYGSQCMQPNNIMGIENICELAARLLFSAVEWARNIPFFPDLQITDQVSLLRLTWSELFVLNAAQCSMPLHVAPLLAAAGLHASPMSADRVVAFMDHIRIFQEQVEKLKALHVDSAEYSCLKAIVLFTSDACGLSDAAHIESLQEKSQCALEEYVRSQYPNQPSRFGKLLLRLPSLRTVSSSVIEQLFFVRLVGKTPIETLIRDMLLSGSSFNWPYMSIQCS
B3: FLAG-Q244AzF-NR2F1 (protein, UniProt P10589 1-423)
chain: B2 chain with Q244F
modifications: p-azidophenylalanine (AzF) at position 244

Tests used:
[1] = molecular target: T1, cellular retinoic acid-binding protein 2 (CRABP2) (human (endogenous in HEK293T)) (UniProt P29373); assay: cross-linking
T1 sequence: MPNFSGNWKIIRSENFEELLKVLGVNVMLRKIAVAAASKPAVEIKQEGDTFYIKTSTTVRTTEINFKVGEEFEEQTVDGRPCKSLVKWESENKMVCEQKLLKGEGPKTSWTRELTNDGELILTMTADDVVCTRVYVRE

[2] = molecular target: FLAG-Q244AzF-NR2F1 with the pathogenic mutation L252P (human) (UniProt P10589); assay: cross-linking
[3] = molecular target: FLAG-Q244AzF-NR2F1 with the pathogenic mutation G395A (human) (UniProt P10589); assay: cross-linking
[4] = molecular target: FLAG-Q244AzF-NR2F1 with the pathogenic mutation L372P (human) (UniProt P10589); assay: cross-linking
[5] = molecular target: T2, FLAG-Q244AzF-NR2F1 (human) (UniProt P10589); assay: cross-linking
T2 sequence (chain, p-azidophenylalanine (AzF) at position 244): B2 chain with Q244F

[6] = molecular target: FLAG-Q244AzF-NR2F1 with the pathogenic mutation E318D (human) (UniProt P10589); assay: cross-linking
[7] = molecular target: T3, FLAG-AzF-NR2F1 with AzF at position 318 (human) (UniProt P10589); assay: cross-linking
T3 sequence (chain, p-azidophenylalanine (AzF) at position 318): B2 chain with E318F

[8] = molecular target: T4, FLAG-AzF-NR2F1 G368AzF (human) (UniProt P10589); assay: cross-linking
T4 sequence (chain, p-azidophenylalanine (AzF) at position 368): B2 chain with G368F

[9] = molecular target: T5, FLAG-tagged NR2F1 wild type (FLAG-NR2F1-WT) (human) (UniProt P10589); assay: co-IP
T5 sequence: B2 chain

[10] = molecular target: T6, FLAG-NR2F1 G368D (human) (UniProt P10589); assay: co-IP
T6 sequence: B2 chain with G368D

| Molecule | binding [1] | binding [2] | binding [3] | binding [4] | binding [5] | binding [6] | binding [8] | further results |
| --- | --- | --- | --- | --- | --- | --- | --- | --- |
| FLAG-Q244AzF-NR2F1 with the pathogenic mutation G368D (from UniProt P10589 1-423) | binds | – | – | – | – | – | – | – |
| FLAG-Q244AzF-NR2F1 with the pathogenic mutation G395A (from UniProt P10589 1-423) | binds | – | – | – | – | – | – | – |
| FLAG-Q244AzF-NR2F1 with the pathogenic mutation E318D (from UniProt P10589 1-423) | binds | – | – | – | – | – | – | – |
| B1 | – | binds | binds | binds | binds | binds | binds | binding [7]: binds |
| B2 | – | binds | binds | binds | binds | binds | binds | binding [9]: binds weakly; binding [10]: binds weakly |
| B3 | binds | – | – | – | – | – | – | – |
